Some of the results follow. Repeats are few or missing, and single values can be far off.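 The apoptosis fraction was the count of cleaved-PARP antibody-stained nuclei relative to all DNA-stained nuclei, imaged in 1,536-well plates. Screening doses were set so most cells survived, and baseline and induced cleaved-PARP levels vary greatly across cell lines.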
What follows are molecules tested on LOXIMVI (assay: cleaved PARP positive nuclei fraction relative to DMSO control; melanoma cells; higher = more apoptosis). Conditions: library dose: low library concentration; 72 h.

**Q.** How did the “cleaved PARP positive nuclei fraction” value turn out when `Cc1ccc(Nc2nccc(N(C)c3ccc4c(C)n(C)nc4c3)n2)cc1S(N)(=O)=O` [Pazopanib] + CCc1ccc(CCOc2ccc(CC3SC(=O)NC3=O)cc2)nc1 [pioglitazone] (first compound 0.4 µM, partner dose 2 µM) was run?
**A.** 78.6%

**Q.** `Cc1cc(Nc2cc(N3CCN(C)CC3)nc(Sc3ccc(NC(=O)C4CC4)cc3)n2)n[nH]1` [Tozasertib] + c1cc(-c2cnn3cc(-c4ccc(OCCN5CCCCC5)cc4)cnc23)ccn1 [Dorsomorphin] (first compound 0.006 µM, partner dose 0.4 µM) was tested. Which “cleaved PARP positive nuclei fraction” value did it give?
**A.** 103%

**Q.** For `Cc1ccc(Nc2nccc(N(C)c3ccc4c(C)n(C)nc4c3)n2)cc1S(N)(=O)=O` [Pazopanib] + COC(=O)c1sccc1S(=O)(=O)Nc1ccc(Nc2ccccc2)cc1OC [GSK0660] (first compound 0.4 µM, partner dose 1 µM), which “cleaved PARP positive nuclei fraction” value is on record?
**A.** 108%

**Q.** Which “cleaved PARP positive nuclei fraction” value does the source give for `COc1cc([C@@H]2c3cc4c(cc3[C@@H](O[C@@H]3O[C@@H]5CO[C@@H](C)O[C@H]5[C@H](O)[C@H]3O)[C@H]3COC(=O)[C@H]23)OCO4)cc(OC)c1O` [etoposide] + O=S(=O)(c1ccccc1)N(CC(F)(F)F)c1ccc(C(O)(C(F)(F)F)C(F)(F)F)cc1 [T0901317] (first compound 0.02 µM, partner dose 1.4 µM) here?
**A.** 17.2%

**Q.** How did the “cleaved PARP positive nuclei fraction” value turn out when `O=c1[nH]nc(Sc2ncc([N+](=O)[O-])s2)n1-c1ccc2c(c1)OCCO2` + c1cc(-c2cnn3cc(-c4ccc(OCCN5CCCCC5)cc4)cnc23)ccn1 [Dorsomorphin] (first compound 0.2 µM, partner dose 0.4 µM) was run?
**A.** 51.8%

**Q.** With `Cc1cc(Nc2cc(N3CCN(C)CC3)nc(Sc3ccc(NC(=O)C4CC4)cc3)n2)n[nH]1` [Tozasertib] + Oc1cc(-c2nc(-c3ccccc3)[nH]c2-c2ccncc2)ccc1Cl [L779450] (first compound 0.006 µM, partner dose 0.2 µM) as the molecule, how does the “cleaved PARP positive nuclei fraction” value read?
**A.** 35.2%

**Q.** How did the “cleaved PARP positive nuclei fraction” value turn out when `Cc1cc(Nc2cc(N3CCN(C)CC3)nc(Sc3ccc(NC(=O)C4CC4)cc3)n2)n[nH]1` [Tozasertib] + Cn1cc(/C=C2\C(=O)Nc3cccnc32)c2ccccc21 [GW441756] (first compound 0.006 µM, partner dose 0.4 µM) was run?
**A.** 104%

**Q.** `Cc1cn(-c2cc(NC(=O)c3ccc(C)c(Nc4nccc(-c5cccnc5)n4)c3)cc(C(F)(F)F)c2)cn1` [nilotinib] + O=C(O)C(=O)Nc1sc2c(c1C(=O)O)CCNC2 [TCS401] (first compound 0.2 µM, partner dose 1.66667 µM) was tested. Which “cleaved PARP positive nuclei fraction” value did it give?
**A.** 183%

**Q.** For `Cc1cn(-c2cc(NC(=O)c3ccc(C)c(Nc4nccc(-c5cccnc5)n4)c3)cc(C(F)(F)F)c2)cn1` [nilotinib] + O=S(=O)(c1ccccc1)N(CC(F)(F)F)c1ccc(C(O)(C(F)(F)F)C(F)(F)F)cc1 [T0901317] (first compound 0.2 µM, partner dose 1.4 µM), which “cleaved PARP positive nuclei fraction” value is on record?
**A.** 51.4%

**Q.** How did the “cleaved PARP positive nuclei fraction” value turn out when `COc1cc([C@@H]2c3cc4c(cc3[C@@H](O[C@@H]3O[C@@H]5CO[C@@H](C)O[C@H]5[C@H](O)[C@H]3O)[C@H]3COC(=O)[C@H]23)OCO4)cc(OC)c1O` [etoposide] + Cc1cc([N+](=O)[O-])ccc1NS(=O)(=O)c1cc(Cl)ccc1Cl [FH535] (first compound 0.02 µM, partner dose 1 µM) was run?
**A.** 97.8%

**Q.** With `N#CC[C@H](C1CCCC1)n1cc(-c2ncnc3[nH]ccc23)cn1` [ruxolitinib] + N#Cc1c(O)c2c(-c3ccc(-c4ccccc4O)cc3)csc2[nH]c1=O [A769662] (first compound 1 µM, partner dose 2 µM) as the molecule, how does the “cleaved PARP positive nuclei fraction” value read?
**A.** 55.5%

**Q.** Which “cleaved PARP positive nuclei fraction” value does the source give for `COc1cc([C@@H]2c3cc4c(cc3[C@@H](O[C@@H]3O[C@@H]5CO[C@@H](C)O[C@H]5[C@H](O)[C@H]3O)[C@H]3COC(=O)[C@H]23)OCO4)cc(OC)c1O` [etoposide] + O=C1NC(=O)/C(=C/c2ccc(-c3ccc(F)cc3O)o2)S1 [AS252424] (first compound 0.02 µM, partner dose 1 µM) here?
**A.** 90.1%

**Q.** How did the “cleaved PARP positive nuclei fraction” value turn out when `COc1cc([C@@H]2c3cc4c(cc3[C@@H](O[C@@H]3O[C@@H]5CO[C@@H](C)O[C@H]5[C@H](O)[C@H]3O)[C@H]3COC(=O)[C@H]23)OCO4)cc(OC)c1O` [etoposide] + CC(C)CCN1c2nc(Nc3cc(F)c(O)c(F)c3)ncc2N(C)C(=O)C1C [BID1870] (first compound 0.02 µM, partner dose 0.2 µM) was run?
**A.** 46.6%

— the supplement of paper PMC4604168 (melanoma cell lines)
